The list shows a part of the results. Shown are side measurements of this screen, not its main read-out; they come without a call. Most of these compounds were active or inconclusive in the main read-out, so they are no random draw. Potencies come from curve fits of mixed quality, noted in brackets.
Assay: qHTS Assay for Modulators of Lamin A Splicing
Conditions: HeLa LMNA splicing GFP/RFP minigene ratio, 48 h
Summary of the method: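 Read-out is the ratio of GFP to DsRed2 object intensity, acquired by 488 nm laser-scanning cytometry on HeLa lamin A-EGFP minigene reporter cells. Compound incubation 48 hrs at 37 °C in Opti-MEM with 2% FBS; DMSO 0.5% final.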

[1] = measured here: RFP viability control channel
[2] = measured here: GFP splicing reporter channel

SMILES: CC(C)NC(=O)NC(=O)COC(=O)c1cccc(OC(F)F)c1
- AC50 [1]: 0.282 µM [falling, full curve]

SMILES: COc1ccc(N2CCN(c3oc(-c4ccc(OC)c(OC)c4)nc3C#N)CC2)cc1
- AC50 [1]: 20 µM [rising, single point]

SMILES: Cc1ccc(NC(=O)CSc2nnc(COc3ccc(C#N)cc3)n2-c2ccccc2)cc1C
- AC50 [1]: 22.4 µM [rising, partial curve]

SMILES: COc1ccc(C(=O)OCc2cc(=O)n3nc(-c4cccs4)sc3n2)cc1
- AC50 [1]: 0.355 µM [falling, full curve, poor fit]

SMILES: CCOC(=O)c1c(NC(=O)CSc2c[nH]c3ccccc23)sc2c1CCC2
- AC50 [2]: 35.5 µM [rising, single point]
- AC50 [1]: 35.5 µM [rising, single point]

SMILES: CCC(=O)Nc1cccc(NC(=O)c2cccc([N+](=O)[O-])c2C)c1
- AC50 [1]: 35.5 µM [rising, partial curve, poor fit]

SMILES: CCOc1ccccc1NC(=S)NC1CCCCC1
- AC50 [1]: 20 µM [rising, single point]

SMILES: CSc1sc(C(=O)NC(=O)NCc2cccnc2)c(C)c1-c1ccon1
- AC50 [2]: 0.158 µM [rising, full curve, poor fit]

SMILES: CN(C)C(=O)c1ccc(-c2nc(Nc3ccc(F)cc3)c3ccccc3n2)cc1
- AC50 [2]: 35.5 µM [falling, single point]
- AC50 [1]: 35.5 µM [falling, single point]

SMILES: CN(C)P(=NC(=O)COc1ccc(Cl)cc1Cl)(N(C)C)N(C)C
- AC50 [2]: 12.6 µM [rising, partial curve]
- AC50 [1]: 17.8 µM [rising, partial curve]

SMILES: CCOc1ccc(NC(C)C(=O)N/N=C/c2ccc([N+](=O)[O-])cc2)cc1 (configuration not stated)
- AC50 [2]: 6.31 µM [falling, partial curve, poor fit]

SMILES: COCc1c(C(=O)OC/C(O)=C(\C#N)c2nc3ccccc3[nH]2)oc2ccccc12
- AC50 [2]: 0.0447 µM [falling, full curve, poor fit]

SMILES: N#Cc1ccc(C(=O)NC2CCCc3ccccc32)cc1 (configuration not stated)
- AC50 [1]: 35.5 µM [falling, partial curve]

SMILES: O=C(c1ccccc1)c1cccc(NC(=O)c2ccc(Br)o2)c1
- AC50 [1]: 12.6 µM [rising, single point]

SMILES: Cc1nn(Cc2ccc(F)cc2)c(C)c1NC(=O)c1noc2c1CCCCC2
- AC50 [1]: 14.1 µM [rising, single point]

SMILES: Cc1cc(C(=O)NCc2cc(C)n(C)n2)sc1-c1ccccc1
- AC50 [2]: 14.1 µM [rising, single point]
- AC50 [1]: 14.1 µM [rising, partial curve]

SMILES: Cc1ccccc1NC(=O)Cn1c(SCC(=O)Nc2ccc(F)cc2)nc2ccccc21
- AC50 [2]: 2.51 µM [falling, partial curve]

SMILES: CC(C)CN(C(=O)c1cccc(S(=O)(=O)N2CCCCC2)c1)C1CCS(=O)(=O)C1 (configuration not stated)
- AC50 [2]: 22.4 µM [falling, partial curve]

SMILES: COc1ccc(C(=O)N2N=C(c3cccc(OC)c3)CC2(O)C(F)(F)F)cc1 (configuration not stated)
- AC50 [2]: 15.8 µM [rising, single point]
- AC50 [1]: 22.4 µM [rising, single point]

SMILES: COCCNc1nc(-c2c(C)noc2C)nc2ccccc12
- AC50 [2]: 35.5 µM [falling, single point]

SMILES: CCn1c(SCC(=O)Nc2ccc(OCc3ccccc3)cc2)nnc1-c1ccco1
- AC50 [2]: 12.6 µM [rising, single point]
- AC50 [1]: 14.1 µM [rising, partial curve]

SMILES: CCCOc1ccccc1C1CC(=O)Nc2cc3c(cc21)OCO3 (configuration not stated)
- AC50 [1]: 28.2 µM [falling, single point]

SMILES: CN(C)c1ccc(/C=C2\CCC/C(=C\c3ccccc3)C2=O)cc1
- AC50 [2]: 11.2 µM [rising, single point]
- AC50 [1]: 22.4 µM [rising, partial curve, poor fit]

SMILES: COc1ccc(/C=C/C(=O)c2ccc3c(c2)OCCO3)cc1[N+](=O)[O-]
- AC50 [1]: 35.5 µM [falling, single point]

SMILES: COc1ccc(NC(=O)c2cc3c(-c4ccc(OC)c(OC)c4)nn(C)c3s2)cc1OC
- AC50 [2]: 15.8 µM [falling, single point]
- AC50 [1]: 35.5 µM [falling, single point]

SMILES: O=C(COc1ccc(S(=O)(=O)NC2CCCCC2)cc1)N1CCN(c2cccc(Cl)c2)CC1
- AC50 [1]: 3.55 µM [rising, full curve]

SMILES: CCn1cc(C(=O)N2CCN(c3ccc(OC)cc3)CC2)c(=O)c2cc(S(=O)(=O)N3CCCCC3)ccc21
- AC50 [1]: 0.0224 µM [rising, full curve, poor fit]

SMILES: Cc1ccc(C(c2nnnn2CCc2ccccc2)N2CCC(C)CC2)cc1 (configuration not stated)
- AC50 [1]: 12.6 µM [rising, partial curve, poor fit]

SMILES: Cc1cc(SCC(=O)Nc2cccc(S(=O)(=O)NC3=NCCCCC3)c2)c(C)cc1Br
- AC50 [2]: 12.6 µM [rising, single point]
- AC50 [1]: 25.1 µM [rising, single point]

SMILES: Cc1cccc(NC(=O)c2ccccc2NC(=O)C(C)(C)C)n1
- AC50 [2]: 6.31 µM [rising, partial curve]

SMILES: N#Cc1c(-c2cccc(Br)c2)cc(-c2cccnc2)nc1N
- AC50 [1]: 10 µM [rising, partial curve]

SMILES: O=C1CC(c2ccsc2)c2ccc3ccccc3c2N1 (configuration not stated)
- AC50 [2]: 20 µM [falling, single point]
- AC50 [1]: 7.08 µM [falling, partial curve]

SMILES: Cc1ccc(N=C2NC(=O)/C(=C\c3ccc(C)s3)S2)cc1
- AC50 [2]: 0.355 µM [rising, full curve, poor fit]
- AC50 [1]: 1.12 µM [rising, partial curve, poor fit]

SMILES: COc1cccc2sc(Nc3nc(-c4ccccn4)cs3)nc12
- AC50 [1]: 3.98 µM [rising, single point]

SMILES: Cc1ccccc1Nc1sc(C(=O)c2ccc3c(c2)OCO3)c(N)c1S(=O)(=O)c1ccccc1
- AC50 [1]: 20 µM [rising, single point]

SMILES: CN(C)C(=O)/C(C#N)=C\c1cc(Br)c(Sc2ccc(Cl)cc2)o1
- AC50 [1]: 10 µM [rising, partial curve]
